Laboratory results: PubChem BioAssay AID1508588 (Peter MacCallum Cancer Centre, 2020)

Purpose: 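Genome-wide search for knock-downs that heighten vemurafenib action in melanoma cells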 (primary screen)
System: human WM266.4 melanoma cells (BRAF V600 mutant)
Reagent: siRNA pool against human genes, 40 nM
Duration: 96 h from transfection to read-out
Conditions: vemurafenib 300 nM (about IC25), added 48 h after transfection, for 48 h; comparison arm got DMSO vehicle only
Read-out: 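Ratios to non-targeting siRNA for cell gain, counted as DAPI nuclei after minus before drug and averaged over two replicates, and for absorbance-read medium lactate per cell; both binned into fold-change classes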
Direction: cell gain with vemurafenib: higher = more cell gain than with non-targeting siRNA; lactate per cell with vemurafenib: higher = more lactate made per cell
Active means: 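a knock-down counts as enhancing when its fold-change classes with vehicle and with vemurafenib, taken together, show a stronger drug effect on cell gain or lactate per cell; exact class pairs not stated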
Meaning of the calls: active = enhances vemurafenib effect; inactive = no enhancement seen
This is a random part of about 18,000 reagents. 790 of them (4.4%) were called active. 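Calls rest on a combination of fold-change classes in drug and vehicle arms, not all shown here.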

target	cell gain with vemurafenib	lactate per cell with vemurafenib	activity call
PDSS2	0.85	1.46	inactive
KCTD11	0.27	2.39	inactive
METTL21C	0.28	1.31	inactive
ABCC1	0.82	0.74	inactive
UST	0.42	0.02	active
PDGFD	0.45	1.84	inactive
PINX1	0.97	0.38	inactive
PDGFC	0.95	0.74	inactive
ANXA11	0.3	0.85	inactive
FAM53A	0.56	0.99	inactive
SYCN	0.48	0.46	active
CPNE6	0.06	0.84	inactive
GAL	0.93	1.64	inactive
MSH5	0.26	1.35	inactive
REG3G	1.44	0.8	inactive
EIF2S1	0.02	2.77	inactive
ADCY4	0.77	0.9	inactive
NUDT10	0.23	0.7	inactive
TMEM169	0.91	1.01	inactive
IL32	1.18	0.8	inactive
MFSD11	0.68	1.19	inactive
HAPLN4	0.92	1.58	inactive
CCDC159	0.28	0.42	active
GLE1	0.95	0.39	active
CLTRN	0.47	0.78	inactive
TOR3A	0.29	2.4	inactive
KCNS3	0.38	0.87	inactive
HSD17B14	0.27	1.52	inactive
SACK1D	0.59	0.87	inactive
PTPRR	0.78	0.81	inactive
LIG3	0.3	1.43	inactive
EGF	0.44	1.51	inactive
UGP2	0.74	1.13	inactive
UBE2J2	0.37	0.58	active
ZCCHC24	0.55	1.5	inactive
SLITRK5	0.63	0.6	inactive
KRTDAP	0.74	0.89	inactive
ZNF687	0.44	0.99	inactive
TECPR1	0.44	0.99	inactive
ACRV1	0.51	0.64	active
PLXDC1	0.79	0.22	inactive
HARS1	0.92	1.44	inactive
ELOA2	0.43	2.4	inactive
TMEM94	0.39	1.3	inactive
KATNIP	0.53	0.54	inactive
MXRA7	0.27	1.5	inactive
WDR48	0.26	1.08	inactive
SSTR4	0.74	0.26	inactive
OR4F5	0.93	0.66	inactive
SFRP4	0.52	1.14	inactive
AHSA2P	0.87	0.84	inactive
CD70	1.18	0.72	inactive
ZNF532	0.48	0.85	inactive
VRK3	0.68	0.64	inactive
GEMIN6	0.24	1.34	inactive
C5AR1	0.31	1.82	inactive
AMER2	0.11	1.4	inactive

Individual results from above.
SSTR4, cell gain with vemurafenib: 0.74
Value for C5AR1 under “lactate per cell with vemurafenib”: 1.82
Result for ANXA11 under “cell gain with vemurafenib”: 0.3
HSD17B14, lactate per cell with vemurafenib → 1.52
Value for MFSD11 under “cell gain with vemurafenib”: 0.68
ABCC1, cell gain with vemurafenib: 0.82
